From PubChem BioAssay AID588497 (NMMLSC, 2011)
Out of some 360,000 compounds screened, about 780 (0.22%) were called active. This list was built around the results that the source calls inconclusive (neither active nor inactive); the mix of calls is not that of the screen. Cut-off read from the data, not from the text of the source: active = inhibition above about 35% (passing the limit was not always enough); inconclusive = no clear call, values can overlap the other calls.

System: Botulinum neurotoxin type F light chain protease (Clostridium botulinum)
Assay: BoNT/F light chain protease inhibitors, primary screen, biochemical, flow cytometry, MLPCN library (AID 588497); note: plate controls were buffer without enzyme for full effect and enzyme alone for no effect
Conditions: Multiplex microsphere protease cleavage assay, at 10 µM, hits give high values

Row | SMILES | inhibition
1 | O=c1[nH]c(=S)n(C2CCCCC2)c(O)c1/C=N/N1CCOCC1 | inconclusive: -21.4%
2 | CC(=O)N(Cc1ccccc1C)c1cccc(C)c1C | inactive: -5.7%
3 | CN(C)CCNc1c2c(nc3ccccc13)CCC2 | inconclusive: -17.4%
4 | O=C(CNc1ccc(Br)cc1)NC(=O)NC1CCCCC1 | inactive: -19.5%
5 | COc1ccccc1/C=C/C=N/n1c(-c2ccc(Cl)cc2Cl)n[nH]c1=S | inconclusive: -17.2%
6 | CC(=O)Nc1ccc(/C=N/NC(=O)c2cc3ccccc3nc2C)cc1 | inactive: -16%
7 | COC(=O)C1(C)CCCC2(C)c3cc(OC)ccc3C(=O)C(Br)C12 (centres undefined) | inactive: 0.4%
8 | CCN(CC)C(=O)C1CCCN(Cc2ccc3ccccc3c2)C1 (centres undefined) | inconclusive: 5.1%
9 | Nn1c(SCc2cccc(Cl)c2)nnc1-c1ccncc1 | inconclusive: -11.1%
10 | Cc1cccc(-n2c(/C=C/c3ccccn3)nc3ccccc3c2=O)c1 | inconclusive: 42.7%
11 | O=C(Cn1ccc2ccccc2c1=O)NCCC(=O)Nc1cccnc1 | inconclusive: 22.8%
12 | CC(C)(C(=O)c1ccccc1)/[N+]([O-])=C/c1ccccc1 | inactive: 0%
13 | Oc1ccc(Br)cc1CNc1nccs1 | inconclusive: -3.9%
14 | CC(=O)c1ccc(N2CCN(C(=O)c3cc(-c4cccnc4)nc4ccc(Br)cc34)CC2)cc1 | inactive: -0.5%
15 | COC(=O)c1c(NC(=O)c2ccccc2[N+](=O)[O-])sc2c1CC(C)(C)NC2(C)C | active: 70.3%
16 | O=S(=O)(c1ccccc1)N1CCc2ccccc21 | inconclusive: 91.9%
17 | CC1=CC2=NC(=O)/C(=C/c3cccs3)C(=N)N2O1 | inconclusive: -39.5%
18 | Cc1cccn2c(=O)nc(SCC(=O)NCCc3ccccc3)nc12 | inconclusive: -9.6%
19 | CC1CN(C(=O)CSc2nnc(-c3cccs3)n2N)CC(C)O1 (centres undefined) | inactive: 1.6%
20 | COc1ccc(C)cc1NC(=O)c1c([N+](=O)[O-])cnn1C | inconclusive: 13.5%
21 | C/C(Cl)=C/CSc1nc2c(c(=O)[nH]c(=O)n2C)n1C(C)C | inconclusive: -39.2%
22 | CCCC(=O)c1ccc(N2CCCC2)c(F)c1 | inconclusive: 14.3%
23 | O=C(CCC1CCCCC1)Nc1nncs1 | inconclusive: -4.4%
24 | CCCC(C(=O)NC(C)(C)C)N(CCN1CCOCC1)C(=O)CNS(=O)(=O)c1ccccc1 (centres undefined) | inactive: 1.4%

Row | SMILES | inhibition
25 | COCCCn1c(C)nnc1SCC(=O)Nc1ccc(C(C)=O)cc1 | inconclusive: 24.5%
26 | CCN1CCN(S(=O)(=O)c2ccc(OC)cc2)CC1 | inconclusive: 19.2%
27 | CCOP(=O)(OCC)C(Nc1cccc([N+](=O)[O-])c1)c1ccc(OC)cc1 (centres undefined) | inconclusive: -56.5%
28 | CSc1nc(-c2ccc(N(C)C)cc2)c(C#N)c(=O)n1C | inactive: -6.1%
29 | O=C(c1ccccc1)N1CCCN(c2nccc(C(F)(F)F)n2)CC1 | inconclusive: 38.5%
30 | COc1ccc(C(NC(C)=O)c2nccc3cc(OC)c(OC)cc23)cc1OC (centres undefined) | inconclusive: -5.3%
31 | Cn1ncc2c(Nc3ccc(Br)cc3)nc(Nc3ccc(Br)cc3)nc21 | inconclusive: -17.3%
32 | Nn1c(-c2ccccc2Cl)nnc1-c1ccccc1Cl | inactive: -4%
33 | COc1cccc2c1NC(C(=O)O)C1CC=CC21 (centres undefined) | inconclusive: -21%
34 | COc1ccc2c(c1OC)C(=O)OC2Nc1nc(-c2cccc([N+](=O)[O-])c2)cs1 (centres undefined) | inconclusive: 32.6%
35 | COc1ccc(S(=O)(=O)NCCc2c[nH]c3ccc(Cl)cc23)cc1 | inconclusive: -1.6%
36 | Cc1onc(-c2ccc(Cl)cc2)c1-c1ccnc(SCC(=O)Nc2ccc(C(C)C)cc2)n1 | inconclusive: 60.5%
37 | CCOc1ccc(C)cc1S(=O)(=O)n1ccnc1 | inconclusive: 9.5%
38 | COc1ccc2oc(C(=O)OCC(=O)NC(C)(C#N)C3CC3)c(C)c2c1 (centres undefined) | inconclusive: -4.2%
39 | O=C(Nc1nc2ccccc2n1CCN1CCOCC1)c1ccc(Cl)cc1 | inconclusive: -18.8%
40 | O=C1CN(C(=O)OCc2ccccc2)c2ccccc2N1 | inconclusive: 9.9%
41 | CCCCOc1ccc(/C(O)=C(\C#N)c2nc3ccccc3[nH]2)cc1 | active: 42.1%
42 | OCCNc1nc(OCC(F)(F)F)nc(N2CCN(C34CC5CC(CC(C5)C3)C4)CC2)n1 | inconclusive: -23.4%
43 | COc1cc(/C=N/NC(=O)c2ccc3c(c2)OCO3)ccc1O | inconclusive: -3.6%
44 | CCC(C)(C)c1ccc(OCC(=O)Nc2ccncc2)cc1 | inconclusive: -29.3%
45 | C/C(=N\N(Cc1ccccc1)c1ccccc1)c1ccncc1 | inactive: -7%
46 | O=C(Nc1ccccc1C(F)(F)F)N1CCN(c2ccc3nnc(-c4ccc(F)cc4)n3n2)CC1 | inactive: -8.6%
47 | Cc1cc(N=Nc2ccc(C)c(N=Nc3cc(C)c(N)cc3N)c2)c(N)cc1N | inconclusive: -291%
48 | CC1CCCCN1C(=O)CCNC(=O)Cn1cnc2ccccc2c1=O (centres undefined) | inactive: 0.2%

Copied from above: compounds 36 to 42
Row | SMILES | inhibition
36 | Cc1onc(-c2ccc(Cl)cc2)c1-c1ccnc(SCC(=O)Nc2ccc(C(C)C)cc2)n1 | inconclusive: 60.5%
37 | CCOc1ccc(C)cc1S(=O)(=O)n1ccnc1 | inconclusive: 9.5%
38 | COc1ccc2oc(C(=O)OCC(=O)NC(C)(C#N)C3CC3)c(C)c2c1 (centres undefined) | inconclusive: -4.2%
39 | O=C(Nc1nc2ccccc2n1CCN1CCOCC1)c1ccc(Cl)cc1 | inconclusive: -18.8%
40 | O=C1CN(C(=O)OCc2ccccc2)c2ccccc2N1 | inconclusive: 9.9%
41 | CCCCOc1ccc(/C(O)=C(\C#N)c2nc3ccccc3[nH]2)cc1 | active: 42.1%
42 | OCCNc1nc(OCC(F)(F)F)nc(N2CCN(C34CC5CC(CC(C5)C3)C4)CC2)n1 | inconclusive: -23.4%

(next part)

Row | SMILES | inhibition
49 | COc1ccc2c(COC(=O)c3n[nH]c4ccccc34)cc(=O)oc2c1 | inconclusive: -12.8%
50 | COc1cccc(Nc2nc(N)nc(C(F)(F)F)n2)c1 | inconclusive: -20.6%
51 | O=C(O)[C@@H]1Cc2ccccc2N1 | inconclusive: -142%
52 | O=c1c2ccccc2sc2ccc(NCCCN3CCOCC3)cc12 | inactive: -5.5%
53 | Cc1cccc(NC(=O)CNC(=O)C23CC4CC(CC(Cl)(C4)C2)C3)n1 | inconclusive: 0.7%
54 | Cc1cccc(NC(=O)Nc2c(C)n(C)n(-c3ccccc3)c2=O)c1C | inactive: -3.7%
55 | COc1ccc(CCN(Cc2nc3ccccc3c(=O)[nH]2)C(=O)c2ccco2)cc1OC | inconclusive: -11%
56 | O=C(NNC(=O)c1csc(-c2cccnc2)n1)c1ccccc1 | inconclusive: -180%
57 | COc1cc(C(=S)N2CCN(C(c3ccccc3)c3ccccc3)CC2)cc(OC)c1O | inconclusive: 8.7%
58 | CN(C)CCCNc1nc(-c2ccccc2)nc2ccccc12 | inconclusive: -12.9%
59 | N#C/C(=C\c1cccs1)C(=O)N1CCOCC1 | inconclusive: 145%
60 | COCCCNc1oc(/C=C/c2ccccc2)nc1C#N | inconclusive: -3.9%
61 | CC(C)c1ccc(/C=C2\SC(=S)N(CCC(=O)N3CCCCC3CCO)C2=O)cc1 (centres undefined) | inactive: -5.9%
62 | COc1ccc(CCC(C)N2CCc3ccccc3C2)cc1 (centres undefined) | inconclusive: 9.9%
63 | Cc1ccc(S(=O)(=O)N2CCN(CC(=O)NC(=O)NCc3ccccc3)CC2)cc1C | inactive: -12.1%
64 | CC(O)(c1cccc(F)c1)c1nc(-c2cc(F)cc(F)c2)cs1 (centres undefined) | inactive: -3.9%
65 | O=C(c1ccc2c(=O)n(Cc3ccc(Cl)cc3)c(=S)[nH]c2c1)N1CCOCC1 | inactive: 2%
66 | CCOc1ccc(OCC)c(NC(=O)C2CCCN(S(=O)(=O)c3c(C)noc3C)C2)c1 (centres undefined) | inconclusive: -18.7%
67 | COCCNc1cnn(-c2ccccc2)c(=O)c1Cl | inconclusive: 20.1%
68 | Cc1csc(=NC(=O)c2ccccc2)n1C | inactive: -3.2%
69 | CSc1nc(N)n2nc(-c3ccc(Cl)cc3)cc2n1 | inconclusive: -47.2%
70 | CCCc1c(C(=O)Nc2cc(C)on2)cnn1-c1ccccc1 | inconclusive: 55.1%
71 | O=C(COC(=O)c1ccc2c(c1)OCO2)NCc1ccc(Cl)cc1 | inconclusive: 18.7%
72 | CC(c1ccccc1)n1c(N2CCN(C)CC2)nc2c1c(=O)[nH]c(=O)n2C (centres undefined) | inconclusive: -1%

Row | SMILES | inhibition
73 | Cc1cccc(NC(=O)c2cc([N+](=O)[O-])ccc2NC2CCCCC2)c1 | inactive: -11.9%
74 | O=c1ccccn1CCOc1ccc(Cl)cc1 | inconclusive: 28.5%
75 | COc1ccc(NC(=O)c2cc(-c3ccc(C)o3)nc3ccccc23)cc1 | inconclusive: -30%
76 | CCCc1[nH]nc2c1C(c1cc(OC)cc(OC)c1)C(C#N)=C(N)O2 (centres undefined) | inactive: -7.1%
77 | CN1CCN(c2cc(C(F)(F)F)nc3ccc(F)cc23)CC1 | inconclusive: -25.2%
78 | Cn1nccc1C(=O)Nc1cc(Cl)ccc1Cl | inconclusive: 21.5%
79 | CCCN1CCN(CC(O)COC(c2ccc(OC)cc2)c2ccc(OC)cc2)CC1 (centres undefined) | inconclusive: 6.9%
80 | NC(=O)NC(=O)COC(=O)CCSc1ccccc1 | inactive: 1.6%
81 | CCOC(=O)N1CCN(S(=O)(=O)c2ccc(OC)cc2)CC1 | inconclusive: -16.8%
82 | COc1ccc(OC)c(NC(=O)C2CCCN(S(=O)(=O)c3c(C)noc3C)C2)c1 (centres undefined) | inconclusive: -61.3%
83 | Cc1cc(C)nc(S/C=C/C(=O)c2ccccc2)n1 | inconclusive: 3.7%
84 | COc1cccc(-c2cc(C(=O)NC3CCCC3)c3ccccc3n2)c1 | inconclusive: 16.7%
85 | C=CCC(NC(C)c1ccccc1)c1ccco1 (centres undefined) | inactive: -3%
86 | CCC(=O)N1CCN(c2ccccc2NC(=O)Cc2ccc(Cl)cc2)CC1 | inactive: -0.7%
87 | CCN(CC)CCN=Cc1c(O)n(Cc2ccccc2)c(=O)[nH]c1=O | inconclusive: -38.7%
88 | Cc1[nH]c2ccccc2c1/C=N/NC(=O)CNC(=O)c1cccs1 | inconclusive: 5.6%
89 | CC(=O)Nc1nc(NC(=O)C(Cl)(Cl)Cl)n(-c2ccccc2)n1 | inconclusive: 71.2%
90 | CCOc1ccc(C(=O)NCCCCNC(=O)c2ccc(OCC)cc2)cc1 | inconclusive: -43%
91 | CC(=O)Nc1ccc2nc3ccccc3nc2c1 | inconclusive: 129%
92 | Cc1ccc(C(=O)N(CCN(C)C)CC2CCCN(Cc3ccccc3F)C2)cc1C (centres undefined) | inconclusive: 6.2%
93 | O=C(c1ccc(Cl)cc1Cl)N1CCSCC1 | inconclusive: 12.8%
94 | COc1ccc(NC(=O)CSc2nc3ccccc3c3nc4ccccc4n23)cc1 | inactive: -16.7%
